The results in this text go back to article PMC10511320.

In this data set the test system is INTAC complex (Integrator-PP2A) (human). In words: EMSA. The settings on record: INTAC alone; EMSA: 100 nM Cy3 probe, 20 mM Tris-HCl pH 7.5, 50 mM NaCl, 5 mM MgCl2, 0.2 mM EDTA, 1 mM DTT, on ice 30 min; 6% native PAGE, 0.5x TBE, cold room; recombinant protein; label: 3' Cy3; single-stranded DNA. (In general: Mobility shift assays separate free from complexed probe on a gel.)

The exact form of at least one protein or probe is not confirmed. Weaker means in comparison with the reference protein, sequence or condition of that experiment.

Turning to “TTTTTTTTTTTTTTTTTTTTTTTTTTTTTTTTTTTTTTTTTTTTTTTT [oligo (dT)48]”, the binding result is “binds more weakly”.
